From article PMC3215731
Results are given in words; binding and its absence hold for the method and conditions named. In cells and extracts the contact can be indirect. Some entries that bind do so weakly or less than the wild type.

Protein sequences, listed by entry. Tags and fused reporters are not part of them. Residues count along the entry.
UniProt P20333, residues 23-461: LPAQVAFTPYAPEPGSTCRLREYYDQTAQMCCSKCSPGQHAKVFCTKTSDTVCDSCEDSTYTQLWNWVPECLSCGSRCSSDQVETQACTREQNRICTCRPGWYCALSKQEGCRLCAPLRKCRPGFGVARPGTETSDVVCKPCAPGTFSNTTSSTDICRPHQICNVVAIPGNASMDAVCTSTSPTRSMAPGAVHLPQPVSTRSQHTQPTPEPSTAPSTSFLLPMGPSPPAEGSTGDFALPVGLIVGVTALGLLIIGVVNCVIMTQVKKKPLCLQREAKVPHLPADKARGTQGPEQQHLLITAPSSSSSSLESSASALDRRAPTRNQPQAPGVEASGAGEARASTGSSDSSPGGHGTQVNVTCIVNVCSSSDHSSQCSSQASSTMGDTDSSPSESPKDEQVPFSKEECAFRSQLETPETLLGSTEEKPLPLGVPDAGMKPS

Biological target: human TNF receptor 2 (huTNFR2) expressed in R2 MEF (human) (UniProt P20333)
Experiment: co-IP; R2 MEF stimulated with TNC-scTNFR2 (20 ng/ml) for the indicated times; lysis in 0.5% Triton X-100, 0.5% NP-40 buffer; TNFR2 precipitated with MR2-1 antibody and protein G agarose; immunoblot with anti-huTNFR2 and anti-TRAF2

binding: binds
B1: TRAF2 (endogenous in R2 MEF) (protein, UniProt P39429 1-501)
chain: MAAASVTSPGSLELLQPGFSKTLLGTRLEAKYLCSACKNILRRPFQAQCGHRYCSFCLTSILSSGPQNCAACVYEGLYEEGISILESSSAFPDNAARREVESLPAVCPNDGCTWKGTLKEYESCHEGLCPFLLTECPACKGLVRLSEKEHHTEQECPKRSLSCQHCRAPCSHVDLEVHYEVCPKFPLTCDGCGKKKIPRETFQDHVRACSKCRVLCRFHTVGCSEMVETENLQDHELQRLREHLALLLSSFLEAQASPGTLNQVGPELLQRCQILEQKIATFENIVCVLNREVERVAVTAEACSRQHRLDQDKIEALSNKVQQLERSIGLKDLAMADLEQKVSELEVSTYDGVFIWKISDFTRKRQEAVAGRTPAIFSPAFYTSRYGYKMCLRVYLNGDGTGRGTHLSLFFVVMKGPNDALLQWPFNQKVTLMLLDHNNREHVIDAFRPDVTSSSFQRPVSDMNIASGCPLFCPVSKMEAKNSYVRDDAIFIKAIVDLTGL
